The results are deposited in PubChem (AID504749; NCATS, 2011).

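A panel of P. falciparum strains inside erythrocytes is exposed to compounds for three days, then a DNA-binding dye reports the amount of parasite DNA. Each compound was titrated across a series from about 0.000037 to 29 µM. The number is the fitted AC50, the concentration giving a half-maximal change in signal; a lower value means higher potency, whether the curve shows a decrease or an increase. Calls follow the curve class and fit quality: every row here is inconclusive, covering signal-raising curves and weak, poorly fitted, partial or highest-dose-only inhibition curves.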

Values are in nM. All entries here are filed as inconclusive. These entries are mostly ones the record files as inconclusive; other results of the assay are not listed here. Potencies fitted to partial, single-point or poorly fitting curves are rough. An entry listed twice with the same setting is a separate test.

- CN1[C@@H]2CC[C@H]1CC(OC(c1ccccc1)c1ccccc1)C2 (stereo partly drawn) [JCK] : Potency 10000 nM (inhibitor, single point)
- CN1[C@@H]2CC[C@H]1CC(OC(c1ccccc1)c1ccccc1)C2 (stereo partly drawn) [W2] : Potency 4256 nM (inhibitor, partial curve)
- CN1[C@@H]2CC[C@H]1CC(OC(c1ccccc1)c1ccccc1)C2 (stereo partly drawn) [HB3] : Potency 14125 nM (inhibitor, partial curve, poor fit)
- CN1[C@@H]2CC[C@H]1CC(OC(c1ccccc1)c1ccccc1)C2 (stereo partly drawn) [FAB9] : Potency 17782 nM (inhibitor, single point)
- CN1[C@@H]2CC[C@H]1CC(OC(c1ccccc1)c1ccccc1)C2 (stereo partly drawn) [P93_24] : Potency 10000 nM (inhibitor, partial curve)
- CN1[C@@H]2CC[C@H]1CC(OC(c1ccccc1)c1ccccc1)C2 (stereo partly drawn) [CP260] : Potency 7943 nM (inhibitor, partial curve)
- CN1[C@@H]2CC[C@H]1CC(OC(c1ccccc1)c1ccccc1)C2 (stereo partly drawn) [GB4] : Potency 5358 nM (inhibitor, partial curve, poor fit)
- CN1[C@@H]2CC[C@H]1CC(OC(c1ccccc1)c1ccccc1)C2 (stereo partly drawn) [CP335] : Potency 11995 nM (inhibitor, partial curve)
- CN1[C@@H]2CC[C@H]1CC(OC(c1ccccc1)c1ccccc1)C2 (stereo partly drawn) [DFO2036] : Potency 10000 nM (inhibitor, partial curve)
- CN1[C@@H]2CC[C@H]1CC(OC(c1ccccc1)c1ccccc1)C2 (stereo partly drawn) [CP262] : Potency 19011 nM (inhibitor, single point)
- CN1[C@@H]2CC[C@H]1CC(OC(c1ccccc1)c1ccccc1)C2 (stereo partly drawn) [TAB165] : Potency 5012 nM (inhibitor, partial curve)
- CN1[C@@H]2CC[C@H]1CC(OC(c1ccccc1)c1ccccc1)C2 (stereo partly drawn) [CP325] : Potency 8492 nM (inhibitor, single point)
- CN1[C@@H]2CC[C@H]1CC(OC(c1ccccc1)c1ccccc1)C2 (stereo partly drawn) [CP262] : Potency 10690 nM (inhibitor, partial curve)
- CN1[C@@H]2CC[C@H]1CC(OC(c1ccccc1)c1ccccc1)C2 (stereo partly drawn) [CP256] : Potency 7080 nM (inhibitor, partial curve)

2 of the entries, repeated:

| Compound | condition | Potency (nM) | curve |
|---|---|---|---|
| `CN1[C@@H]2CC[C@H]1CC(OC(c1ccccc1)c1ccccc1)C2` (stereo partly drawn) | P93_24 | 10000 | inhibitor, partial curve |
| `CN1[C@@H]2CC[C@H]1CC(OC(c1ccccc1)c1ccccc1)C2` (stereo partly drawn) | W2 | 4256 | inhibitor, partial curve |